Results are given in words; binding and its absence hold for the method and conditions named. Some binding calls cover weakened binding; strength is not graded here.
Tests used:
[1] = target: human CD47 on CCRF-CEM cells (CD47 positive cells) (human) (UniProt Q08722); experiment: CD47-SIRPα blocking experiment, FIG. 5 legend
[2] = target: human CD47 on CCRF-CEM cells (CD47 positive cells) (human) (UniProt Q08722); experiment: flow cytometry blocking assay on CCRF-CEM cells, hybridoma supernatant

Sequences of proteins named here, by UniProt entry; tags and fusion partners are left off. Residues count along the entry.
UniProt Q08722, residues 19-323: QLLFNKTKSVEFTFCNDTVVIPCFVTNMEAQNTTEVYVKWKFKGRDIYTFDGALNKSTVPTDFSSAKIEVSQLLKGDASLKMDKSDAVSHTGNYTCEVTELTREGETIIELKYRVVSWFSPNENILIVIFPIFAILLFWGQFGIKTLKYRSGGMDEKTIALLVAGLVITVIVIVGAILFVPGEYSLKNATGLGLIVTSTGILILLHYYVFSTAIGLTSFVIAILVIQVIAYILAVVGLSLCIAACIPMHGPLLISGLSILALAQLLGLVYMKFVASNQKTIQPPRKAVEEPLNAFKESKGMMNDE

| binding [1] | binding [2] | Binder |
| --- | --- | --- |
| binds | binds | hybridoma positive clone 7H5 (antibody, V domains shown) VH: QVQLQQPGAELVKPGASVKMSCKASGYTFTNYNFHWVKQRPGQGLEWIGTFYPVNGDTSYNQKFDGKATVTADKSSSTAYMQLSSLTSEDSAVYYCARGGTRAMDYWGQGTSVTVSS VL: DVLMTQTPLSLPVSLGDQASISCRSSQGIVHSNGNTYLAWYLQKPGQSPKLLIYKVSNRFSGVPDRFSGSGSGTDFTLKISRVEAEDLGVYYCFQGSHVPYTFGGGTKLEIK |
| binds | binds | hybridoma positive clone 2E4 (antibody, V domains shown) VH: QIQLQQSGPEVVKPGASVEISCKASGYTFTDDYINWYKQKPGQGLEWIGWIYPGSGNAKYNEKFKGKATLIVDTSSTTAYMQLSSLTSEDTAVYFCSRRREDSFDYWGQGTTLTVSS VL: DFVMSQSPSSLAVSVGEKVTMSCKSSQSLLYSSNQKNYLAWYQQKPGQSPKLLIYWASTRESGVPDRFTGSGSGTDFTLTISSVKPEDLAVYYCQQFYRYPLTFGAGTKLELK |

— patent US20210292412A1
